# Measurements from patent US5750531A, “Pyrimidine derivatives and processes for the preparation thereof” (Yuhan Corporation, priority 1994, dated 1998).
# Test system: proton pump(H^+ /K^+ ATPase)
# Assay: Inhibition of proton pump(H^+ /K^+ ATPase) activity
# Assay type: biochemical
# Conditions: IC50 omeprazole / IC50 test compound
# Experimental: Test 1: Inhibition of proton pump(H^+ /K^+ ATPase) activity
# A proton pump enzyme source was prepared by the same method as in Experiment 1-1 of WO 94/14795. Further, the inhibitory effect of proton pump activity was measured by the same method as in Experiment 1-2 of WO 94/14795.
# Namely, the proton pump activity stimulated by Mg^++ was used as a negative comparative group, and the activity stimulated by Mg^++ and K^+ was used as a positive comparative group. The comparative compound was omeprazole.
# Test tubes were divided into 4 groups: Group 1 as negative comparative group(n=3), Group 2 as positive comparative group(n=3), Group 3(n=5×2) to be administered with the compound of the present invention and Group 4(n=5×2) to be administered with the comparative compound.
# The inhibitory effects of Groups 3 and 4 on proton pump activity were measured by employing the compound prepared in Example and omeperazole, respectively, each of which was dissolved in dimethylsulfoxide at 5 different concentrations.
# To each of Groups 1, 2, 3 and 4 were added 100 μl of magnesium chloride(40 mM) dissolved in 40 mM Tris-HCl buffer(pH 6.0) and 100μ of the enzyme source. Then, 50μ of potassium chloride(50 mM) and 50 μl of ammonium chloride(6 mM) dissolved in 40 mM Tris-HCl buffer(pH 6.0) were added to all groups except for Group 1.
# 10 μl of dimethylsulfoxide was added to each of Groups 1 and 2; and to Group 3 was added 10 μl of the solution in which the compound prepared in Example was dissolved in dimethylsulfoxide at 5 different concentrations(n=5×2). To Group 4, 10 μl of the solution prepared by dissolving omeprazole in dimethylsulfoxide at 5 different concentrations(37.6, 21.4, 12.2, 7.0 and 4.0 μM) was added(n=5×2). 40 mM Tris-HCl buffer(pH=6.0) was added thereto so as to make the total volume 400 μl.
# Thereafter, the test tubes of each Group were placed at 37° C. for 30 minutes for the preincubation. 100 μl of ATP solution (6.6 mM) was added until the reaction volume became 500 μl. After the reaction was carried out at 37° C. for 30 minutes, 25% cold trichloroacetic acid was added to terminate the enzyme reaction. The released inorganic phosphate was measured by an automatic analyzer(Express 550, Corning).
# The difference between Group 1 and Group 2 represents the proton pump activity activated by K^+ only. The inhibition percentages of Groups 3 and 4 were calculated from Litchfield-wilcoxon equation[see, e.g., J. pharmacol. Exp. Ther., 96, 99(1949)]. The concentrations of the test compounds which inhibit 50% of the proton pump activity are represented as IC50 in Table 1.
row,SMILES,Effect ratio
1,"CCc1nc(Nc2ccc(F)cc2C)nc(N2CCc3ccccc3C2)c1C.Cl [Example 44, 5-methyl-6-ethyl-2-(2-methyl-4-fluorophenylamino)-4-(1,2,3,4-tetrahydroisoquinolin-2-yl)pyrimidine hydrochloride]",~ 1.08
2,"Cc1cc(N2CCc3ccsc3C2C)nc(N(C)c2ccccc2)n1.Cl (stereo not drawn) [Example 54, 6-methyl-2-(N-methylphenylamino)-4-(7-methyl-4,5,6,7-tetrahydrothieno[2,3-c]pyridin-6-yl)pyrimidine hydrochloride]",0.49
3,"Cc1cc(F)ccc1Nc1nc(C)c(C)c(N2CCc3ccsc3C2C)n1.Cl (stereo not drawn) [Example 55, 5,6-dimethyl-2-(2-methyl-4-fluorophenylamino)-4-(7-methyl-4,5,6,7-tetrahydrothieno[2,3-c]pyridin-6-yl)pyrimidine hydrochloride]",4.80
4,"CCc1nc(N(C)c2ccccc2)nc(N2CCc3ccccc3C2C)c1C.Cl (stereo not drawn) [Example 28, 5-methyl-6-ethyl-2-(N-methylphenylamino)-4-(1-methyl-1,2,3,4-tetrahydroisoquinolin-2-yl)pyrimidine hydrochloride]",< 0.95
5,"Cc1cc(F)ccc1Nc1nc2c(c(N3CCc4ccccc4C3)n1)CCC2 [Example 47, 2-(2-methyl-4-fluorophenylamino)-4-(1,2,3,4-tetrahydroisoquinolin-2-yl)cyclopenta[d]pyrimidine hydrochloride]",~ 1.54
6,"Cc1cc(F)ccc1Nc1nc(N2CCc3ccccc3C2C)nc(C)c1C.Cl (stereo not drawn) [Example 65, 5,6-dimethyl-4-(2-methyl-4-fluorophenylamino)-2-(1-methyl-1,2,3,4-tetrahydroisoquinolin-2-yl)pyrimidine hydrochloride]",6.04
7,"CCc1nc(N(C)c2ccccc2)nc(N2CCc3ccccc3C2)c1C.Cl [Example 46, 5-methyl-6-ethyl-2-(N-methylphenylamino)-4-(1,2,3,4-tetrahydroisoquinolin-2-yl)pyrimidine hydrochloride]",~ 0.60
8,"Cc1cc(N2CCc3ccccc3C2)nc(Nc2ccc(F)cc2C)n1.Cl [Example 34, 6-methyl-2-(2-methyl-4-fluorophenylamino)-4-(1,2,3,4-tetrahydroisoquinolin-2-yl)pyrimidine hydrochloride]",4.02
9,"Cc1cc(F)ccc1Nc1nc2c(c(N3CCc4ccccc4C3C)n1)CCC2 (stereo not drawn) [Example 29, hydrochloride]",17.49
10,"Cc1cc(F)ccc1Nc1nc(N2CCc3ccccc3C2C)nc2c1CCC2 (stereo not drawn) [Example 81, hydrochloride]",15.82
11,"Cc1nc(N2CCc3ccccc3C2)nc(Nc2ccc(F)cc2)c1C.Cl [Example 75, 5,6-dimethyl-4-(4-fluorophenylamino)-2-(1,2,3,4-tetrahydroisoquinolin-2-yl)pyrimidine hydrochloride]",5.89
12,"Cc1nc(N2CCc3ccsc3C2C)nc(Nc2ccc(F)cc2)c1C.Cl (stereo not drawn) [Example 78, 5,6-dimethyl-2-(7-methyl-4,5,6,7-tetrahydrothieno[2,3-c]pyridin-6-yl)-4-(4-fluorophenylamino)pyrimidine hydrochloride]",1.35
13,"Cc1cc(F)ccc1Nc1nc2c(c(N3CCc4ccccc4C3C)n1)CCCC2.Cl (stereo not drawn) [Example 32, 2-(2-methyl-4-fluorophenylamino)-4-(1-methyl-1,2,3,4-tetrahydroisoquinolin-2-yl)-5,6,7,8-tetrahydroquinazoline hydrochloride]",8.40
14,"Cc1cc(F)ccc1Nc1nc(N2CCc3ccccc3C2C)nc2c1CCCC2.Cl (stereo not drawn) [Example 82, 4-(2-Methyl-4-fluorophenylamino)-2-(1-methyl-1,2,3,4-tetrahydroisoquinolin-2-yl)-5,6,7,8-tetrahydroquinazoline hydrochloride]",9.40
15,"CCc1cc(N2CCc3ccccc3C2C)nc(Nc2ccc(F)cc2C)n1.Cl (stereo not drawn) [Example 5, 6-ethyl-2-(2-methyl-4-fluorophenylamino)-4-(1-methyl-1,2,3,4-tetrahydroisoquinolin-2-yl)pyrimidine hydrochloride]",4.91
16,"Cc1cc(Nc2ccc(F)cc2C)nc(N2CCc3ccsc3C2C)n1.Cl (stereo not drawn) [Example 59, 6-methyl-4-(2-methyl-4-fluorophenylamino)-2-(7-methyl-4,5,6,7-tetrahydrothieno[2,3-c]pyridin-6-yl)pyrimidine hydrochloride]",~ 0.60
17,"CN(c1ccccc1)c1nc2c(c(N3CCc4ccccc4C3)n1)CCCC2.Cl [Example 50, 2-(N-methylphenylamino)-4-(1,2,3,4-tetrahydroisoquinolin-2-yl)-5,6,7,8-tetrahydroquinazoline hydrochloride]",~ 0.70
18,"Cc1cc(F)ccc1Nc1nc(C)c(C)c(N2CCc3ccccc3[C@H]2C)n1.Cl [Example 13, (R)-5,6-Dimethyl-2-(2-methyl-4-fluorophenylamino)-4-(1-methyl-1,2,3,4-tetrahydroisoquinolin-2-yl)pyrimidine hydrochloride]",10.70
19,"Cc1cc(Nc2ccc(F)cc2)nc(N2CCc3ccsc3C2C)n1.Cl (stereo not drawn) [Example 60, 6-methyl-4-(4-fluorophenylamino)-2-(7-methyl-4,5,6,7-tetrahydrothieno[2,3-c]pyridin-6-yl)pyrimidine hydrochloride]",~ 0.51
20,"Cc1cc(F)ccc1Nc1nc2c(c(N3CCc4ccccc4C3)n1)CCCC2.Cl [Example 48, 2-(2-methyl-4-fluorophenylamino)-4-(1,2,3,4-tetrahydroisoquinolin-2-yl)-5,6,7,8-tetrahydroquinazoline hydrochloride]",~ 1.97
21,"Cc1cc(N2CCc3ccccc3C2)nc(Nc2ccc(F)cc2)n1.Cl [Example 35, 6-methyl-2-(4-fluorophenylamino)-4-(1,2,3,4-tetrahydroisoquinoline-2-yl)pyrimidine hydrochloride]",4.02
22,"Cc1ccc(Nc2nc(C)c(C)c(N3CCc4ccccc4C3C)n2)cc1.Cl (stereo not drawn) [Example 25, 5,6-dimethyl-2-(4-methylphenylamino)-4-(1-methyl-1,2,3,4-tetrahydroisoquinolin-2-yl)pyrimidine hydrochloride]",8.10
23,"CCCc1cc(N2CCc3ccccc3C2C)nc(Nc2ccc(F)cc2)n1.Cl (stereo not drawn) [Example 10, 4-(1-methyl-1,2,3,4-tetrahydroisoquinolin-2-yl)-6-propyl-2-(4-fluorophenylamino)pyrimidine hydrochloride]",0.69
24,"CCc1cc(N2CCc3ccccc3C2C)nc(Nc2ccc(F)cc2)n1.Cl (stereo not drawn) [Example 6, 6-ethyl-2-(4-fluorophenylamino)-4-(1-methyl-1,2,3,4-tetrahydroisoquinolin-2-yl)pyrimidine hydrochloride]",4.91
25,"Cc1nc(N2CCc3ccccc3[C@H]2C)nc(Nc2ccc(F)cc2)c1C.Cl [Example 69, (R)-5,6-dimethyl-4-(4-fluorophenylamino)-2-(1-methyl-1,2,3,4-tetrahydroisoquinolin-2-yl)pyrimidine hydrochloride]",2.00
26,"Cc1cc(Nc2ccc(F)cc2C)nc(N2CCc3ccccc3C2C)n1.Cl (stereo not drawn) [Example 57, 6-methyl-4-(2-methyl-4-fluorophenylamino)-2-(1-methyl-1,2,3,4-tetrahydroisoquinolin-2-yl)pyrimidine hydrochloride]",3.50
27,"Cc1nc(Nc2ccccc2)nc(N2CCc3ccccc3[C@H]2C)c1C [Example 22, (R)-5,6-Dimethyl-2-(4-phenylamino)-4-(1-methyl-1,2,3,4-tetrahydroisoquinolin-2-yl)pyrimidine hydrochloride]",7.26
28,"Cc1cc(F)ccc1Nc1nc(N2CCc3ccccc3[C@H]2C)nc(C)c1C.Cl [Example 66, (R)-5,6-dimethyl-4-(2-methyl-4-fluorophenylamino)-2-(1-methyl-1,2,3,4-tetrahydroisoquinolin-2-yl)pyrimidine hydrochloride]",6.40
29,"CC1c2ccccc2CCN1c1nc(N(C)c2ccccc2)nc2c1CCC2 (stereo not drawn) [Example 31, 2-(N-methylphenylamino)-4-(1-methyl-1,2,3,4-tetrahydroisoquinolin-2-yl)cyclopenta[d]pyrimidine hydrochloride]",~ 0.51
30,"Cc1cc(F)ccc1Nc1nc(C)c(C)c(N2CCc3ccccc3[C@@H]2C)n1.Cl [Example 14, (S)-5,6-dimethyl-2-(2-methyl-4-fluorophenylamino)-4-(1-methyl-1,2,3,4-tetrahydroisoquinolin-2-yl)pyrimidine hydrochloride]",8.70

# Counter-ions that a name gives are not always drawn.
